In patent US20210401708A1, “Skin Anti-Aging Composition Containing Irilin B” (PHYTO CORPORATION INC., priority 2018, published 2021):

Tested on: Human skin keratinocytes
Assay: Keratinocyte differentiation promoting effect
Assay type: cell-based
Method: Human skin keratinocytes (Korean Cell Line Bank) were seeded in the CO2 incubation flask in which DMEM containing 10% FBS was placed. After the cells were grown to a confluency of about 80%, Irilin B at different concentrations (5, 10, 20, 50, 100 μg/ml) were added to the cells, followed by incubation for 3 days. Thereafter, the cells were treated with a reduction modifier, such as sodium dodecyl sulfate (SDS) and β-mercaptoethanol, to remove proteins. After the treatment, the remaining keratinocyte layer was suspended in distilled water, and then the absorbance was measured at 310 nm to analyze the peptide concentration. The increase by each sample was compared on the basis of the negative control, distilled water (0%). In the positive control, the cells were treated with 10 nM TGF-β known as a cell differentiation factor. All the tests of keratinocyte differentiation promoting effect were repeatedly carried out three times. The absorbance at 310 nm is expressed as a mean and standard deviation, and the cell differentiation promoting effect is expressed, using the following calculation formula, as an average value (%), in Table 4.
Cell differentiation promoting effect (%)=(absorbance value at 310 nm in test sample−absorbance value at 310 nm in negative control)×100 [Calculation Formula]

## COc1c(O)cc2occ(-c3ccccc3O)c(=O)c2c1O [Irilin B, 5,7,2′-trihydroxy-6-methoxyisoflavone]
10 μg/ml, 3 days
  Absorbance (310 nm): 0.839 ± 0.05
20 μg/ml, 3 days
  Absorbance (310 nm): 1.024 ± 0.06
50 μg/ml, 3 days
  Absorbance (310 nm): 1.510 ± 0.04
100 μg/ml, 3 days
  Absorbance (310 nm): 1.981 ± 0.08

## transforming growth factor-β (TGF-β)
10 nM
  Absorbance (310 nm): 2.004 ± 0.03
